# Test results reported in PMC3344933.
# Biological target: T1, myc-PKCλ (UniProt Q62074)
# T1 sequence: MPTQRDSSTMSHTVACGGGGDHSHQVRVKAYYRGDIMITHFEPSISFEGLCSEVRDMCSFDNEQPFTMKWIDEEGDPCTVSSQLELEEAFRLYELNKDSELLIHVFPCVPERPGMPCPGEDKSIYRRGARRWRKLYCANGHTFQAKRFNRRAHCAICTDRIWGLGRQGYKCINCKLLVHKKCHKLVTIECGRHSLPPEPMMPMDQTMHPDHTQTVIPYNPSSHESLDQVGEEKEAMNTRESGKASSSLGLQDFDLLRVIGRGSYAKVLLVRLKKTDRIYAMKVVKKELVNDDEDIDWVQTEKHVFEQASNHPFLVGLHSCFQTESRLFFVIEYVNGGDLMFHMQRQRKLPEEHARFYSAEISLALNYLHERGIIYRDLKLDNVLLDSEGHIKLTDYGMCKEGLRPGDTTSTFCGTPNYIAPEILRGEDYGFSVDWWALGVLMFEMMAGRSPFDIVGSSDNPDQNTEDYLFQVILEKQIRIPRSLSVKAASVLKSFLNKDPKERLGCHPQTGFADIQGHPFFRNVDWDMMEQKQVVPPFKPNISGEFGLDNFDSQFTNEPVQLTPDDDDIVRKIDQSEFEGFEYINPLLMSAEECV
# Experiment: co-IP; HEK293T cells co-transfected with Girdin-V5 and myc-tagged proteins; lysed in RIPA buffer; immunoprecipitated with anti-myc antibody, blotted with anti-V5; in Figure 8B also with a co-expressed dominant-negative PKC mutant (K273E)
substance,measurement,value
Girdin-V5 (human),binding,binds

# These are yes or no findings as the source states them, for the method shown. In cells and extracts the contact can be indirect. A result given as binding can be weak or reduced; the word gives no strength. Sequences can lack the tags named with a protein.
